Entries after “also recorded” stand apart in the source; their conditions may differ.
Tested on: Streptococcus pneumoniae
Experiment: Short-time kill assay on planktonic cultures
Assay type: cell-based
Conditions: D39, 1 hour, staurosporine 20 μM
Method: Methodology: In late logarithmic growth phase, the bacteria were harvested by centrifugation at 12,000×g for 10 minutes and resuspended in phosphate-buffered saline (PBS; […], […], […], pH 7.4). Appropriate dilutions of the bacteria were suspended in PBS and treated with indicated concentrations of ALAFAC and/or antibiotics for various times. The effect on bacterial viability was assessed by plating serial dilutions of bacterial sample on tryptic soy agar plates containing 5% sheep blood (viable counts) and determining viable colony forming units after overnight growth at 37° C.
Short-time kill assays. In late logarithmic growth phase, the bacteria were harvested by centrifugation at 12,000×g for 10 minutes and resuspended in phosphate-buffered saline (PBS; 30 mM Na2HPO4, 10 mM KH2PO4, […], pH 7.4). Appropriate concentrations of the bacteria (around 10^8 colony forming units per ml) were suspended in PBS and treated with indicated concentrations of ALAFAC and/or antibiotics for various times. The effect on bacterial viability was assessed by plating serial dilutions of bacterial sample on tryptic soy agar plates containing 5% sheep blood (viable counts) and determining viable CFUs after overnight growth at 37° C.

CN[C@@H]1C[C@H]2O[C@@](C)([C@@H]1OC)n1c3ccccc3c3c4c(c5c6ccccc6n2c5c31)C(=O)NC4 [staurosporine]
Effect of inhibitor on ALAFAC potentiation of gentamicin and penicillin G (Ruthenium Red 30 μM): completely abolished; also recorded: significantly blocked | Effect of inhibitor on ALAFAC-induced death (lethal ALAFAC (12×MIC), ruthenium red 30 μM): significantly reduced

Source: patent US9526766B2, “Potentiation of antibiotic treatment with a protein-lipid complex” (priority 2012, dated 2016)
